The full ranking holds about 1,600 compounds; the median of “Hit score” is about 0.13, and the highest 2% start at about 0.46. The list shows a part of the results.
Tested on: SARS-CoV-2
Test: Antiviral activity against SARS-CoV-2 (USA-WA1/2020 strain) measured by imaging in HRCE cells at MOI 0.4 after 96 hrs (reported as hit score from 0-1 for on-disease vs off-disease activity: scores >0.6 considered hits)
Type: functional, Homo sapiens

SMILES | Hit score
CCCSc1ccc2[nH]c(NC(=O)OC)nc2c1 [ALBENDAZOLE] | 0.1188
CCc1ccc(CCOc2ccc(CC3SC(=O)NC3=O)cc2)nc1 (configuration not stated) [PIOGLITAZONE] | 0.08808
Cc1ccc(N(CC2=NCCN2)c2cccc(O)c2)cc1 [PHENTOLAMINE] | 0.06841
CNC[C@@H](O)c1ccc(O)c(O)c1 [L-ADRENALINE] | -0.1051
CC(=O)NC(CSC/C=C(\C)CC/C=C(\C)CCC=C(C)C)C(=O)O (configuration not stated) | 0.0647
Cc1ncc([N+](=O)[O-])n1CC(O)CN1CCOCC1 (configuration not stated) [MORINIDAZOLE] | 0.04545
Clc1ccc2c(c1)C(N1CCNCC1)=Nc1ccccc1O2 [AMOXAPINE] | 0.1027
O=C(Cn1ccnc1[N+](=O)[O-])NCc1ccccc1 [BENZNIDAZOLE] | 0.09787
O=C(c1cc(Cc2n[nH]c(=O)c3ccccc23)ccc1F)N1CCN(C(=O)C2CC2)CC1 [OLAPARIB] | 0.1367
CC[C@H]1OC(=O)[C@@](C)(F)C(=O)[C@H](C)[C@@H](O[C@@H]2O[C@H](C)C[C@H](N(C)C)[C@H]2O)[C@](C)(OC)C[C@@H](C)C(=O)[C@H](C)[C@H]2N(CCCCn3cc(-c4cccc(N)c4)nn3)C(=O)O[C@]12C [SOLITHROMYCIN] | 0.2407
CC(C)(Oc1ccc(CCNC(=O)c2ccc(Cl)cc2)cc1)C(=O)O [BEZAFIBRATE] | -0.02924
OCCN1CCN(CCCN2c3ccccc3Sc3ccc(C(F)(F)F)cc32)CC1 [FLUPHENAZINE] | 0.1224
CC[C@H]1OC(=O)[C@H](C)[C@@H](O[C@H]2C[C@@](C)(OC)[C@@H](O)[C@H](C)O2)[C@H](C)[C@@H](O[C@@H]2O[C@H](C)C[C@H](N(C)C)[C@H]2O)[C@](C)(O)C[C@@H](C)C(=O)[C@H](C)[C@@H](O)[C@]1(C)O [ERYTHROMYCIN] | 0.04359
CC(C(=O)O)c1ccc(CC2CCCC2=O)cc1 (configuration not stated) [LOXOPROFEN] | 0.02648
Cl.NCC(=O)CCC(=O)OCc1ccccc1 | 0.2289
C[C@H](NCc1ccc(OCc2cccc(F)c2)cc1)C(N)=O [SAFINAMIDE] | 0.04637
C=CCc1ccc(O)c(OC)c1 [EUGENOL] | 0.2298
CN1C(=O)COc2c(C(=O)NC3CN4CCC3CC4)cc(Cl)cc21 (configuration not stated) [AZASETRON] | 0.1081
CC(=O)N[C@@H](Cc1ccc(O)cc1)C(=O)O [ACETYL TYROSINE] | 0.135
OC[C@@H](O)[C@@H](O)[C@H](O)[C@H](O)CO [MANNITOL] | 0.02698
CC(C)=CCOc1ccc(/C=C/C(=O)c2ccc(OCC=C(C)C)cc2OCC(=O)O)cc1 [SOFALCONE] | 0.2677
Oc1ccc(C2CNCCc3c2cc(O)c(O)c3Cl)cc1 (configuration not stated) [FENOLDOPAM] | 0.226
CC(C(=O)O)c1cccc(Oc2ccccc2)c1 (configuration not stated) [FENOPROFEN] | 0.3412
CCCc1ncc(C[n+]2ccccc2C)c(N)n1 [AMPROLIUM ION] | 0.04873

SMILES | Hit score
OC[C@H]1OC(O)[C@H](O)[C@@H](O)[C@@H]1O (some centres not stated) [DEXTROSE] | 0.07162
CC(C)c1nc(N(C)S(C)(=O)=O)nc(-c2ccc(F)cc2)c1/C=C/[C@@H](O)C[C@@H](O)CC(=O)O [ROSUVASTATIN] | 0.05696
C=C(CC)C(=O)c1ccc(OCC(=O)O)c(Cl)c1Cl [ETHACRYNIC ACID] | 0.1661
OC[C@H]1O[C@@H](O[C@@H]2[C@@H](CO)O[C@](O)(CO)[C@H]2O)[C@H](O)[C@@H](O)[C@H]1O [LACTULOSE] | 0.1124
COc1cc2c(cc1OC)C1CC(=O)C(CC(C)C)CN1CC2 (configuration not stated) [TETRABENAZINE] | -0.001281
Nc1ccc(S(=O)(=O)NC(=O)c2ccccc2)cc1 [SULFABENZAMIDE] | 0.04858
CCOCCn1c(C2CCN(CCc3ccc(C(C)(C)C(=O)O)cc3)CC2)nc2ccccc21 [BILASTINE] | 0.1453
CCN(CC)CCCC(C)Nc1ccnc2cc(Cl)ccc12 (configuration not stated) [CHLOROQUINE] | 0.0509
CS(=O)(=O)c1ccc([C@@H](O)[C@@H](CF)NC(=O)C(Cl)Cl)cc1 [FLORFENICOL] | 0.1507
C[C@](N)(Cc1ccc(O)cc1)C(=O)O [METYROSINE] | 0.1688
CC(=O)[C@H]1CC[C@H]2[C@@H]3C=CC4=CC(=O)CC[C@@]4(C)[C@@H]3CC[C@]12C [DYDROGESTERONE] | 0.01426
N#C[C@@]1(c2ccc3c(N)ncnn23)O[C@H](CO)[C@@H](O)[C@H]1O [GS-441524] | 0.865
c1ccc2c(c1)CCCC2C1=NCCN1 (configuration not stated) [TETRAHYDROZOLINE] | 0.1519
CCCCN1C[C@H](O)[C@@H](O)[C@H](O)[C@H]1CO | 0.1529
COc1c(N2C[C@@H]3CCCN[C@@H]3C2)c(F)cc2c(=O)c(C(=O)O)cn(C3CC3)c12 [MOXIFLOXACIN] | 0.09676
OC(CNc1ccccc1)Cn1c2ccc(Br)cc2c2cc(Br)ccc21 (configuration not stated) | 0.183
N[C@@H](CC(=O)O)C(=O)O [ASPARTIC ACID] | 0.2438
CS(=O)(=O)Nc1cc2occ(NC=O)c(=O)c2cc1Oc1ccccc1 [IGURATIMOD] | 0.1567
Cc1ncc([N+](=O)[O-])n1C [DIMETRIDAZOLE] | 0.2713
C1N2CN3CN1CN(C2)C3 [METHENAMINE] | 0.2305
C=CCN1C[C@H](C(=O)N(CCCN(C)C)C(=O)NCC)C[C@@H]2c3cccc4[nH]cc(c34)C[C@H]21 [CABERGOLINE] | -0.1061
NNCCc1ccccc1 [PHENELZINE] | 0.04153
CC(=O)OCC(=O)[C@@]1(OC(C)=O)[C@@H](C)C[C@H]2[C@@H]3C[C@H](F)C4=CC(=O)C=C[C@]4(C)[C@@]3(F)[C@@H](O)C[C@@]21C [DIFLORASONE DIACETATE] | 0.08777

In a second layout: entries from further up.
C[C@H](NCc1ccc(OCc2cccc(F)c2)cc1)C(N)=O [SAFINAMIDE]
  Hit score: 0.04637
OC[C@@H](O)[C@@H](O)[C@H](O)[C@H](O)CO [MANNITOL]
  Hit score: 0.02698
